{
  "source": "PubChem BioAssay AID504467",
  "about": "(National Center for Advancing Translational Sciences (NCATS), 2011)",
  "note": "Out of some 330,000 compounds screened, about 7,700 (2.3%) were called active. This list was built around the results that the source calls inconclusive (neither active nor inactive); the mix of calls is not that of the screen. Calls follow the shape of the dose curve; as a rule, active = well fitted inhibition curve with a large enough effect; inconclusive = small, poorly fitted or top-dose-only effect, or effect the other way; inactive = flat fitted curve, though single readings scatter. A potency beside an inconclusive call is a rough fit, not a confirmed value. % is scaled to controls: 0 for no effect and ±100 for the full control effect; potency is read from the fitted curve at half-maximal effect.",
  "data": [
    {"assay": "qHTS screen for small molecules that inhibit ELG1-dependent DNA repair in human embryonic kidney (HEK293T) cells expressing luciferase-tagged ELG1; also: nearly all actives have a fitted effect of over 55% in size", "conditions": "HEK293T ELG1-luciferase reporter, luminescence, 16 h, DNA damage induced by 5-fluorouridine; activity change, negative = inhibition: at 46.1 µM (top of the series)", "outline": "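Cells (2,000 per well) received 5-fluorouridine plus test compound or DMSO and were incubated 16 hr at 37 °C, 5% CO2. Luciferase activity was read by luminescence 30 min after ONE-Glo addition; signal suppression marked inhibition of damage-induced ELG1 function.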", "values": [
      {"compound": "Clc1ccc(CSc2ccc(-c3ccccn3)nn2)cc1", "Potency": "inconclusive: 18.3 µM [activator, partial curve]"},
      {"compound": "CC(C)c1nccn1S(=O)(=O)c1cc([N+](=O)[O-])ccc1Cl", "Potency": "inconclusive: 13 µM [activator, partial curve, poor fit]"},
      {"compound": "O=C(Nc1ccccc1)N1CCCN(c2c(Cl)cncc2Cl)CC1", "Potency": "inconclusive: 18.3 µM [inhibitor, single point]"},
      {"compound": "CCOc1ccc(NC(=O)C2CCCN(S(=O)(=O)c3cnc[nH]3)C2)cc1", "note": "(stereo unspecified)", "activity change, negative = inhibition": "inactive: 4.35%"},
      {"compound": "CC1CC(C)(C)NC(=S)N1CCC(=O)N1c2ccccc2CC1C", "note": "(stereo unspecified)", "activity change, negative = inhibition": "inactive: 19.3%"},
      {"compound": "CCc1ccc(NS(=O)(=O)c2ccc3[nH]cc(C(=O)N4CCc5ccccc54)c(=O)c3c2)cc1", "Potency": "inconclusive: 14.6 µM [activator, partial curve]"},
      {"compound": "Cc1[nH][nH]c(=O)c1C(c1ccc(-c2ccccc2C(=O)O)o1)c1c(C)[nH][nH]c1=O", "Potency": "inconclusive: 2.06 µM [inhibitor, partial curve, poor fit]"},
      {"compound": "C(=N\\Nc1ccc2ccccc2n1)/c1ccc2c(c1)OCCO2", "Potency": "inconclusive: 0.082 µM [activator, full curve]"},
      {"compound": "O=C(NN1C(=O)c2cc(Br)ccc2NC1c1ccccc1Cl)c1ccncc1", "note": "(stereo unspecified)", "activity change, negative = inhibition": "inactive: -6.11%"},
      {"compound": "COc1ccc(OC)c(/C=N/NC(=O)CSc2cc(C)nc3c(OC)cccc23)c1", "Potency": "inconclusive: 29.1 µM [inhibitor, single point]"},
      {"compound": "O=C(OCc1nnc(-c2ccccc2)o1)c1cn(-c2ccccc2)nc1-c1ccccc1", "Potency": "inconclusive: 32.6 µM [inhibitor, single point]"},
      {"compound": "COC(=O)c1sccc1NC(=O)CCC1CCCCC1", "Potency": "inconclusive: 25.9 µM [activator, single point]"},
      {"compound": "CCc1ccc(C(=O)CCC2CCCCC2=O)cc1", "note": "(stereo unspecified)", "Potency": "inconclusive: 18.4 µM [activator, partial curve]"},
      {"compound": "O=C(O)c1cccc(N/N=C/c2sc(N3CCOCC3)nc2-c2ccccc2)c1", "Potency": "inconclusive: 18.4 µM [activator, partial curve]"},
      {"compound": "Cc1ccc(-c2nn(C)c(=O)c3ccccc23)cc1CNC(=O)CSc1nc2ccccc2o1", "Potency": "inconclusive: 25.9 µM [inhibitor, single point]"},
      {"compound": "CC(=O)Nc1sc(N/N=C\\c2ccc(O)cc2)nc1-c1cccs1", "Potency": "inconclusive: 13 µM [activator, partial curve]"},
      {"compound": "CN(CC1CCCCO1)C(=O)c1cc(COc2ccc(F)cc2Cl)on1", "note": "(stereo unspecified)", "activity change, negative = inhibition": "inactive: 0.279%"},
      {"compound": "CCOc1ccc(NC(=O)CSc2nc3c([nH]c4ccccc43)c(=O)n2C)cc1", "activity change, negative = inhibition": "inactive: 4.43%"},
      {"compound": "CC(C)Oc1cccc(C(=O)C2CCCN(S(C)(=O)=O)C2)c1", "note": "(stereo unspecified)", "activity change, negative = inhibition": "inactive: 4.9%"},
      {"compound": "O=C(Nc1ccc(Cl)cc1C(=O)Nc1ccncc1)c1ccco1", "Potency": "inconclusive: 18.4 µM [inhibitor, single point]"},
      {"compound": "O=C(/C=C/Nc1cccc(C(F)(F)F)c1)c1ccco1", "Potency": "inconclusive: 20.6 µM [activator, partial curve]"},
      {"compound": "CCOC(=O)c1c(NC(=O)CCl)sc(CN(C)C)c1-c1ccccc1", "activity change, negative = inhibition": "inactive: 0.461%"},
      {"compound": "O=C(NNC(=S)Nc1ccc(Br)cc1Cl)c1ccco1", "Potency": "inconclusive: 9.2 µM [activator, partial curve]"},
      {"compound": "N#CCCNS(=O)(=O)c1ccc(C(=O)OCC(=O)Nc2ccc3c(c2)OCO3)cc1", "Potency": "inconclusive: 31.6 µM [activator, single point]"},
      {"compound": "Cc1cccn2c(=O)c3cc(C(=O)NCCC4=CCCCC4)n(C)c3nc12", "activity change, negative = inhibition": "inactive: 7.12%"},
      {"compound": "CSc1nnc(NC(=O)c2ccc3c(c2)OCO3)s1", "Potency": "inconclusive: 0.517 µM [activator, full curve]"},
      {"compound": "Cn1c(-c2ccco2)nc2cc3ccccc3cc21", "Potency": "inconclusive: 0.731 µM [activator, full curve]"},
      {"compound": "O=C(Cc1cccs1)N/N=C/c1ccccc1", "Potency": "inconclusive: 16.4 µM [activator, partial curve, poor fit]"},
      {"compound": "O=C(O)c1ccccc1C(=O)NNc1ccc(Cl)cc1", "activity change, negative = inhibition": "inactive: 0.142%"},
      {"compound": "CC(=O)NS(=O)(=O)c1ccc(NC(=O)c2cc(-c3ccc(C)c(C)c3)nc3ccccc23)cc1", "Potency": "inconclusive: 20.6 µM [activator, partial curve, poor fit]"},
      {"compound": "COc1ccc(-c2nc(CSCC(=O)NCCC3=CCCCC3)c(C)o2)cc1OC", "Potency": "inconclusive: 29.1 µM [inhibitor, single point]"},
      {"compound": "CC(C)C(=O)N[C@@H]1c2ccccc2CC[C@@H]1O", "activity change, negative = inhibition": "inactive: 17.3%"},
      {"compound": "N=C(N)c1ccc(/C=C/c2ccc(C(=N)N)cc2O)cc1", "activity change, negative = inhibition": "inactive: -1.77%"},
      {"compound": "CC(Oc1ccc(Cl)cc1)C(=O)N1CCN(C(=O)c2ccco2)CC1", "note": "(stereo unspecified)", "activity change, negative = inhibition": "inactive: -18.2%"},
      {"compound": "CC(=O)C1=C(C)NC(SCSc2ccccc2)=C(C#N)C1c1cccnc1", "note": "(stereo unspecified)", "activity change, negative = inhibition": "inactive: -14.3%"},
      {"compound": "CCN(CCNC(=O)CCCn1nc(C)n2c(cc3sccc32)c1=O)c1ccccc1", "Potency": "inconclusive: 23.1 µM [inhibitor, single point]"},
      {"compound": "CCOCC(=O)Nc1c(C(=O)Nc2ccc3c(c2)OCCO3)oc2ccccc12", "Potency": "inconclusive: 1.83 µM [activator, partial curve]"},
      {"compound": "COc1ccc2oc(=O)c(-c3nnc(NCc4ccco4)s3)cc2c1", "Potency": "inconclusive: 18.4 µM [activator, single point]"},
      {"compound": "Cc1nn(Cc2ccccc2)c(C)c1NC(=O)c1cc(-c2ccco2)on1", "Potency": "inconclusive: 20.6 µM [inhibitor, partial curve]"},
      {"compound": "C[C@H]1CN(C2CCCCC2)C(=O)[C@@H]1CC(=O)NCc1ccccc1", "activity change, negative = inhibition": "inactive: -6.46%"},
      {"compound": "Cc1cc(C)n2cc(CSc3nnc(SCc4cn5c(C)cc(C)nc5n4)s3)nc2n1", "activity change, negative = inhibition": "inactive: -13%"},
      {"compound": "COc1ccc(-n2c(SCC(=O)C(C)(C)C)nc3c(sc(=S)n3-c3ccccc3)c2=O)c(OC)c1", "Potency": "inconclusive: 2.91 µM [inhibitor, partial curve, poor fit]"},
      {"compound": "COc1ccc(-c2noc(CNS(=O)(=O)c3ccc(NC(C)=O)cc3)n2)cc1OC", "activity change, negative = inhibition": "inactive: 1.53%"},
      {"compound": "Cc1cc(C)nc(SCCN(C)C)n1", "activity change, negative = inhibition": "inactive: -8.09%"},
      {"compound": "CN(C)CCCNC(=O)C[C@H]1C[C@H](C(=O)N2CCCCC2)[C@@]2(CCc3ccccc3)c3[nH]c4ccc(Cl)cc4c3CCN2C1=O", "Potency": "inconclusive: 32.6 µM [activator, partial curve, poor fit]"},
      {"compound": "Cc1ccc(/C=N/N2C(=O)C3C(C2=O)C2C=CC3C23CC3)o1", "note": "(stereo unspecified)", "Potency": "inconclusive: 20.6 µM [activator, single point]"},
      {"compound": "FC(F)(F)c1ccccc1NC(=S)Nc1cccc(Cl)c1", "activity change, negative = inhibition": "inactive: 1.84%"},
      {"compound": "O=C1N/C(=N\\N=C\\c2ccc3ncccc3c2)SC1Cc1ccc(SC(F)F)cc1", "note": "(stereo unspecified)", "Potency": "inconclusive: 16.4 µM [activator, partial curve]"},
      {"compound": "CCCCN(C(=O)c1ccc(C)o1)c1c(N)n(CCCC)c(=O)[nH]c1=O", "Potency": "inconclusive: 18.3 µM [activator, single point]"},
      {"compound": "CCc1ccc(OCC(=O)Nc2ccc3oc(=O)ccc3c2)cc1", "activity change, negative = inhibition": "inactive: 0.788%"},
      {"compound": "Nc1nc2ccc(C(=O)Nc3ccccc3)cc2s1", "Potency": "inconclusive: 9.2 µM [activator, partial curve]"},
      {"compound": "COc1cccc(NC(=O)N2CCCC2C(=O)NC23CC4CC(CC(C4)C2)C3)c1", "note": "(stereo unspecified)", "Potency": "inconclusive: 0.231 µM [activator, single point]"},
      {"compound": "CC(=O)c1cccc(CN2CCC(C(=O)Nc3cccc(-c4ccn[nH]4)c3)CC2)c1", "Potency": "inconclusive: 18.3 µM [inhibitor, single point]"},
      {"compound": "Cc1[nH][nH]c(=O)c1C(c1c(C)[nH][nH]c1=O)c1cn(Cc2ccc(Cl)c(Cl)c2)c2ccccc12", "Potency": "inconclusive: 4.61 µM [inhibitor, single point]"},
      {"compound": "COCc1cc(C)nc2sc(C(=O)Nc3ccc(OC)cc3)c(N)c12", "Potency": "inconclusive: 20.6 µM [activator, partial curve, poor fit]"},
      {"compound": "Cc1cccc(C(=O)O/N=C/c2c(Cl)n(C)c3ccccc23)c1", "activity change, negative = inhibition": "inactive: 2.35%"},
      {"compound": "O=C(Nc1ccc(F)cc1)c1cc2ccccc2o1", "Potency": "inconclusive: 5.17 µM [activator, partial curve]"},
      {"compound": "C/C(=N\\NC(=O)CSc1nc2ccccc2o1)c1ccc(O)cc1", "Potency": "inconclusive: 23.1 µM [activator, single point]"},
      {"compound": "CCCCC[n+]1ccn(C2=C([O-])c3ccccc3C(=O)/C2=N\\S(=O)(=O)c2ccccc2)c1", "Potency": "inconclusive: 35.5 µM [inhibitor, single point]"},
      {"compound": "COc1ccc(/C=C2\\SC(=S)N(CCC(=O)Nc3cccc(O)c3)C2=O)cc1", "Potency": "inconclusive: 29.1 µM [activator, single point]"},
      {"compound": "COc1ccc(OC)c(C(C)NC(=O)Nc2cccc(C(C)=O)c2)c1", "note": "(stereo unspecified)", "activity change, negative = inhibition": "inactive: -9.67%"},
      {"compound": "N#CC1=C(N)Oc2cc(N)ccc2C1c1cccc(F)c1", "note": "(stereo unspecified)", "Potency": "active: 2.91 µM"},
      {"compound": "CCOc1cc(N2CCOCC2)c(OCC)cc1NC(=O)c1ccccc1", "Potency": "inconclusive: 20.6 µM [inhibitor, single point]"},
      {"compound": "COc1cccc(CN2CCN(CC(=O)NCCc3ccccc3)CC2)c1", "activity change, negative = inhibition": "inactive: -9.71%"},
      {"compound": "O=C(CN1CCN(Cc2ccccc2)CC1)N/N=C/c1ccc(Br)s1", "Potency": "active: 9.2 µM"},
      {"compound": "COc1cc(C(=O)N2CCN(c3ccccc3O)CC2)ccc1OCC(=O)N1CCOCC1", "Potency": "inconclusive: 8.91 µM [inhibitor, partial curve, poor fit]"},
      {"compound": "O=C(O)c1cccc(CN2C(=O)SC(Nc3ccccc3)C2=O)c1", "note": "(stereo unspecified)", "activity change, negative = inhibition": "inactive: 9.63%"},
      {"compound": "O=C(O)c1ccc(N=Cc2c(O)ccc3oc4c(c23)CCCC4)cc1", "Potency": "inconclusive: 29.1 µM [inhibitor, single point]"},
      {"compound": "Cc1onc(-c2ccccc2Cl)c1C(=O)NCCCc1ccccc1", "activity change, negative = inhibition": "inactive: 13.1%"},
      {"compound": "CCn1cnc2c1c(=O)n(CC(=O)NN)c(=O)n2Cc1ccccc1", "activity change, negative = inhibition": "inactive: -13.4%"},
      {"compound": "CC(C)C1=NN2C(=N)CC(=O)N=C2S1", "Potency": "inconclusive: 29.1 µM [activator, partial curve, poor fit]"}
    ]}
  ]
}
